# Inconclusive results, whose numbers are uncertain, are shown with a selection of clear calls. Where the call is inconclusive, the potency comes from a doubtful curve fit. The source made the active and inactive calls. The call rests on the fitted dose curve; in most records, active means well fitted inhibition curve with a large enough effect in the repeat runs; inconclusive means weak or mixed curves; inactive means no such curve, though single readings can be large or run the other way.
# By UniProt entry, the sequences of proteins in these tests, tags left out.
# UniProt P10635, whole entry, looked up: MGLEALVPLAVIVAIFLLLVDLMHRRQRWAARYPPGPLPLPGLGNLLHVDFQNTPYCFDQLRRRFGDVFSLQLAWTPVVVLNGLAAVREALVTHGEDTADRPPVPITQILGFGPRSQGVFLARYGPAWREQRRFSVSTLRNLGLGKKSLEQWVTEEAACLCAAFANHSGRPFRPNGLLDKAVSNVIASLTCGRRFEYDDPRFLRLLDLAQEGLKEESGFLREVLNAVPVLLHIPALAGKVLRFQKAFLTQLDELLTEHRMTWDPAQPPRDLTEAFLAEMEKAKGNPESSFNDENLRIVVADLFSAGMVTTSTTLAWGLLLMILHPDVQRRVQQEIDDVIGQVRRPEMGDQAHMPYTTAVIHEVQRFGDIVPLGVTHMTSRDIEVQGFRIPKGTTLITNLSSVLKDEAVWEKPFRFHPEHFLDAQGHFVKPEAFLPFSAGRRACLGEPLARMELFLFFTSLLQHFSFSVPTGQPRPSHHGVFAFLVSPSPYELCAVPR
# Molecular target: Cytochrome P450 2D6 (Homo sapiens) (UniProt P10635)
# Experiment: Cytochrome P450 Family 2 Subfamily D Member 6 (CYP2D6) small molecule antagonists: luciferase reporter qHTS assay (AID 1671196); further: nearly all actives have a fitted effect of over 50% in size
# Conditions: P450-Glo CYP2D6 enzyme assay, luciferin luminescence, 1 h; series mostly up to 115 µM
# Outline: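 CYP2D6 activity was followed as luminescence from its luciferin product after a 1 h NADPH-driven reaction at room temperature. Enzyme-substrate mix and compound were pre-incubated for 10 min, and the signal was read 20 min after adding detection reagent.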
# Potency means the concentration at half of the fitted maximal effect.
row,SMILES,Potency
1,CCOC(=O)Cn1cccc1-c1nc(-c2ccc(OC)cc2)c(-c2ccc(OC)cc2)s1,"inconclusive: 43.6 µM [inhibitor, single point]"
2,C[C@@H]1C[C@H]2[C@@H]3C[C@H](F)C4=CC(=O)C(Cl)=C[C@]4(C)[C@@]3(F)[C@@H](O)C[C@]2(C)[C@@]1(O)C(=O)CO,"inconclusive: 34.7 µM [inhibitor, partial curve, poor fit]"
3,CC/C=C1/OC(=O)c2ccccc21,"inconclusive: 34.8 µM [inhibitor, partial curve, poor fit]"
4,CCCCOCCOCCSC#N,inactive
5,Cc1ccc(N/N=c2\c(=O)cc/c(=N\Nc3ccc(S(=O)(=O)O)cc3)c2=O)c(C)c1,"inconclusive: 56.4 µM [inhibitor, partial curve]"
6,CC1=CCC(C(C)(C)O)CC1 (configuration not stated),"inconclusive: 35.6 µM [inhibitor, full curve]"
7,CCC(=O)C1CC(C(C)C)CC=C1C (configuration not stated),"inconclusive: 71 µM [inhibitor, partial curve, poor fit]"
8,O=C1Cc2cc(Cl)ccc2N1,inactive
9,C=C(C)C(=O)OCC(CC)(COC(=O)C(=C)C)COC(=O)C(=C)C,"inconclusive: 62.1 µM [inhibitor, partial curve]"
10,CCC(C)(C)OC,"inconclusive: 70.7 µM [inhibitor, partial curve]"
11,COc1ccc2sc(C(=O)Nc3nnn[nH]3)c(OC(C)C)c2c1,inactive
12,O=C(Nc1ccc(Cl)c(Cl)c1)c1cc(Cl)cc(Cl)c1O,inconclusive: 35.6 µM [inhibitor]

# Reference: PubChem BioAssay (Tox21)
